According to patent US12030908B2, “Antimicrobial compounds, compositions, and uses thereof” (Lakewood Amedex, Inc., priority 2017, dated 2024):
Several values for one entry are separate records, joined by “and”; a condition that tells them apart may be missing. Equal entries are not always repeated. Entries after “also recorded” stand apart in the source; their conditions may differ. At least one structure is not confirmed: it was looked up by name or label, or the drawing left a doubt. Some results were stated once for a whole list of compounds, not compound by compound.

Experiments:
[1] = system: Aspergillus fumigatus (ATCC13073); assay: Neutropenic lung infection model in mice, lung fungal burden and mortality (Example 24); format: in vivo, BALB/c mice; conditions: Part A, 1×10^6 conidia/animal; 10% aerosol single dose; n = 6
Procedure: Neutropenic, BALB/c female mice, all of which were from 6 to 8 weeks of age, were infected intranasally with Aspergillus fumigatus (ATCC13073) at inoculum strengths of ˜1×10^6 conidia/animal (Part A) and ˜1×10^4 conidia/animal (Part B). Twenty four hours after infection, animals were treated by aerosol route with vehicle and Nu-8 (10% solution) for one, two, three, and five days. Two hours following treatment, groups of mice were terminated on days 1, 3, and 5, and lungs were collected to determine fungal load. A similar procedure was followed at inoculum strengths of ˜1×10^3 conidia/animal (Part C) and ˜1×10^2 conidia/animal (Part D).
This experiment was performed in four parts: Part A (infection with 1×10^6 conidia/animal), Part B (infection with 1×10^4 conidia/animal), Part C (infection with 1×10^3 conidia/animal), and Part D (infection with 1×10^2 conidia/animal). The mice were separated into cohorts in accordance with Table 13 (Part A), Table 14 (Part B), Table 15 (Part C), and Table 16 (Part D).
On day −4 (four days before the date of infection), each mouse was dosed with a single intraperitoneal injection of cyclophosphamide equivalent to 150 mg/kg and returned to its cage. On day −1 (one day before infection) each mouse received a dose equivalent to 100 mg/kg of cyclophosphamide. Neutropenia was confirmed with differential leukocyte count on day 0. […]

[2] = system: Aspergillus fumigatus (ATCC13073); assay: Individual mouse clinical signs (animal condition) in the Aspergillus fumigatus lung infection model (Example 24); format: in vivo, BALB/c mice; conditions: Part B
[3] = system: Acinetobacter baumannii (ATCC 19606); assay: Clinical signs in the Acinetobacter baumannii lung infection model (Example 25); format: in vivo, BALB/c mice; conditions: Nu-8 (10%), individual animals
From the text: There was a >3 Log10) CFU/g lung decrease following treatment for 5 days when compared to the vehicle on day 1.

[4] = Body weight in the Acinetobacter baumannii lung infection model (Example 25); format: in vivo, BALB/c mice; conditions: Nu-8 (10%), 3 doses, once daily for 3 days
[5] = system: methicillin susceptible S. aureus (ATCC 29213); assay: Bacterial cytological profiling at pH 4, 5.5, 7 (Example 7), S. aureus; format: cell-based; conditions: pH 5.5 and 7; 125 mg/mL and 250 mg/mL
Procedure: This bacterial cytological profiling (BCP) investigation uses methods and materials described previously by Nonejuie, P., Burkart, M., Poglianoa, K., Pogiano, J. (2013). Bacterial cytological profiling rapidly identifies the cellular pathways targeted by antibacterial molecules. Proc. Natl. Acad. Sci. U.S.A. 110(40):16169-16174. doi: 10.1073/pnas.1311066110.
For viable cell counts, cells are grown to OD600≈0.4 and diluted 1:1 into buffered or unbuffered media containing various compound concentrations. Samples are then collected and serially diluted (1:10) on a 96 well plate. Five microliters from each well are spotted on LB plates, incubated at 30° C., and viable cells are counted the next day.
Samples are collected at 10, 30, 120, and 240 min of exposure for viable cell count and imaging. For imaging, E. coli and S. aureus 200 μL of treated cells per time point are stained with 0.8 μg/mL FM4-64, 1.5 μg/mL DAPI, and 0.4 μM SYTOXGreen (Molecular Probes/Invitrogen). P. aeruginosa samples are stained 0.4 μM SYTOX Green, 28 μg/mL DAPI, and 1 μg/mL FM 4-64. Cells are transferred to an agarose pad (20% LB, 1% agarose) for imaging.
For Nu-3 and Nu-8 stocks (at pH 4, 5.5 and 7), stock concentration is 500 mg/mL. For pH 4, the stocks are prepared by dissolving Nu-3 in 25 mM citrate buffer and Nu-8 in 350 mM citric acid. […]

[6] = 3 doses, once daily for 3 days, individual animals 23-30
[7] = single dose, individual animals 15-22
[8] = 3 doses, once daily for 3 days, harvest day 3 after inoculation
[9] = 5 doses, once daily for 5 days, harvest day 5 after inoculation
[10] = single dose, harvest day 1 after inoculation

## CCCCOP(=O)(O)OC[C@H]1O[C@@H](n2ccc(N)nc2=O)C[C@@H]1OP(=O)(O)OCCCC [Nu-8, sodium ((2R,3S,5R)-5-(4-amino-2-oxopyrimidin-1(2H)-yl)-3-((butoxyoxidophosphor-yl)oxy)tetrahydrofuran-2-yl)methyl butyl phosphate]
[1]
  Mean ± SD (Log10 CFU/g lung): 5 45 ± 0.57 Log10 CFU/g lung
[2]; [6]
  Animal Condition Day 2: Animal dull; also recorded: Animal dull (less
  Animal Condition Day 3: Animal weak
[2]; [7]
  Animal Condition Day 2: Animal dull; also recorded: Animal dull (less
  Animal Condition Day 3: Animal weak
[3]; [8]
  Clinical signs: Loss of grooming: −
  Clinical signs: Piloerection: + (3×) and − (3×)
  Clinical signs: Respiratory symptoms, Gasping: − (5×) and +
  Clinical signs: Respiratory symptoms, Nasal discharge: − (4×) and + (2×)
[3]; [9]
  Clinical signs: Loss of grooming: −
  Clinical signs: Piloerection: + (3×) and − (3×)
  Clinical signs: Respiratory symptoms, Gasping: −
  Clinical signs: Respiratory symptoms, Nasal discharge: − (5×) and +
[3]; [10]
  Clinical signs: Loss of grooming: −
  Clinical signs: Piloerection: +
  Clinical signs: Respiratory symptoms, Gasping: + (2×) and −
  Clinical signs: Respiratory symptoms, Nasal discharge: +
[4]
  Body Weight (g) Mean ± SD Day 2: 23.7 ± 0. 5 g
[5]
  cell permeability: < 5%
